Data as given in publication PMC11666572.
Substitutions are numbered along the chain they refer to. No constants are given. Whether binding was seen depends on the method and setting. Binding seen in cells or lysates may run through a third protein. Some results given as binding are weak or reduced against the parent protein; the word gives no strength. For some of these results: Sequences can lack the tags named with a protein.

Sequences of proteins named here, by UniProt entry; tags and fusion partners are left off.
UniProt Q93008: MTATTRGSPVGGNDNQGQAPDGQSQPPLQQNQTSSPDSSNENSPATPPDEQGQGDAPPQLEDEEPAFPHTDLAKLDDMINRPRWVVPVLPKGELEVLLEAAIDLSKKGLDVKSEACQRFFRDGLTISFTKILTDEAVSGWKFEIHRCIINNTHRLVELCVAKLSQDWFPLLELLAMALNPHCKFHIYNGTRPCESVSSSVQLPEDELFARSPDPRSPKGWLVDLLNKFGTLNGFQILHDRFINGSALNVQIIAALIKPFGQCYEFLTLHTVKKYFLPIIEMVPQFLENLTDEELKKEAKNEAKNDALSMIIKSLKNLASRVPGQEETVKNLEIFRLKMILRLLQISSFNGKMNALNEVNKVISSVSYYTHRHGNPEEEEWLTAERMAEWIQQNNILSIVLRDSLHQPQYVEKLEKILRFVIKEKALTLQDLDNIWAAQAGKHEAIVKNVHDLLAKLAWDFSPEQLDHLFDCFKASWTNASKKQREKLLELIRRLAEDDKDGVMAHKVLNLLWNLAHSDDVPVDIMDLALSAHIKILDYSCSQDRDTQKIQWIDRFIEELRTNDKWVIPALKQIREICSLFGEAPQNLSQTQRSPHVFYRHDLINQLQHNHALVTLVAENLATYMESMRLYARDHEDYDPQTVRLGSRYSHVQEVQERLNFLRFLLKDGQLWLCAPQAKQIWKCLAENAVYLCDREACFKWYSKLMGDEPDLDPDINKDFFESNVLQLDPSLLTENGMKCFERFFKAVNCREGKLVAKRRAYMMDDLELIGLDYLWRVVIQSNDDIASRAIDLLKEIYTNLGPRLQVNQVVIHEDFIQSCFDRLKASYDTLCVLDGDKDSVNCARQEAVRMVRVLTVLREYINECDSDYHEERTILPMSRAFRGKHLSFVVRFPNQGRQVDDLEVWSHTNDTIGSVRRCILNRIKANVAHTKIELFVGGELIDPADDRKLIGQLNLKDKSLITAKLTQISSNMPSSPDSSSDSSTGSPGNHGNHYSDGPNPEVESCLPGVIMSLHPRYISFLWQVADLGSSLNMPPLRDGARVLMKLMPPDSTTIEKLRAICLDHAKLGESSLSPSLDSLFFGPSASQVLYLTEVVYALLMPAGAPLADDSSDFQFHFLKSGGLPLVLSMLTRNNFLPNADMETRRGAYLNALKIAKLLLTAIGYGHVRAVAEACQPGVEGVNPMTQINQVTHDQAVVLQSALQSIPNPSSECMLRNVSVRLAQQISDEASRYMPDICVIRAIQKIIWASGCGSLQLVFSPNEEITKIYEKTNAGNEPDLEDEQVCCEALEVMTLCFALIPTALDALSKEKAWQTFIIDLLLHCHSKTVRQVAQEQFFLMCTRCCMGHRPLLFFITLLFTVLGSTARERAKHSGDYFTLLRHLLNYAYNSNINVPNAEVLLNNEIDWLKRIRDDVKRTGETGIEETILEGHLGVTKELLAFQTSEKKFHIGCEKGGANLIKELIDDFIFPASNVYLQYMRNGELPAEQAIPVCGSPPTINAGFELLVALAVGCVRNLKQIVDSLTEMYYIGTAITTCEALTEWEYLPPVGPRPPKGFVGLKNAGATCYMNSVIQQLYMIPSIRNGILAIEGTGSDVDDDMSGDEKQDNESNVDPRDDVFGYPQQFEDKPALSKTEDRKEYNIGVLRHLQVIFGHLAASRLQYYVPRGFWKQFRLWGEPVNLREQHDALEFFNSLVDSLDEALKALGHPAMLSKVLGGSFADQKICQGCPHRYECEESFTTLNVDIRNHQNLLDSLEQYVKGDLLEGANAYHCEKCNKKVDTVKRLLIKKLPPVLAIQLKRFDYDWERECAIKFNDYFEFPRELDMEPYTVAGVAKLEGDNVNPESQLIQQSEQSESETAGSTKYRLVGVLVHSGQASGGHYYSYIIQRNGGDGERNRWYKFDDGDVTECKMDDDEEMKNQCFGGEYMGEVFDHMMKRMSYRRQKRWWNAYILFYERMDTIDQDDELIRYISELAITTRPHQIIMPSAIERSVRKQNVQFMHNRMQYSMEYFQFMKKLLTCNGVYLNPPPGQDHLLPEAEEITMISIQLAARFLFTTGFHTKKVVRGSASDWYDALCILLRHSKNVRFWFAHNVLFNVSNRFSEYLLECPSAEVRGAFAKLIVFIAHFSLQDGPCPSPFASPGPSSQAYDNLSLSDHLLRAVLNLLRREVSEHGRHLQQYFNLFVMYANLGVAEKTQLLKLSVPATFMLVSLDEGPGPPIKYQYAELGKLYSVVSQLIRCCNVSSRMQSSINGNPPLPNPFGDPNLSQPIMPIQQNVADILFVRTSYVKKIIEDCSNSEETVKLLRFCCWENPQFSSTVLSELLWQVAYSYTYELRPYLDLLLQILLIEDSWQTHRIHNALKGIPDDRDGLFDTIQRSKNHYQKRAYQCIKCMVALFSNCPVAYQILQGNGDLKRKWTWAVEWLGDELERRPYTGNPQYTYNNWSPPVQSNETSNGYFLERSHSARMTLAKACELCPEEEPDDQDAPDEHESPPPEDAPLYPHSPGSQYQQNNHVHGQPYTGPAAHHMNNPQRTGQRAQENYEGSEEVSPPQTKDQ

How the values were obtained:
[1] = target: T1, GST-OGT TPR domain (1-473 aa) (UniProt O15294); assay: pull-down; GST-tagged OGT deletion mutants with HEK-293T cells; western blot for USP9X; only the target purified
T1 sequence: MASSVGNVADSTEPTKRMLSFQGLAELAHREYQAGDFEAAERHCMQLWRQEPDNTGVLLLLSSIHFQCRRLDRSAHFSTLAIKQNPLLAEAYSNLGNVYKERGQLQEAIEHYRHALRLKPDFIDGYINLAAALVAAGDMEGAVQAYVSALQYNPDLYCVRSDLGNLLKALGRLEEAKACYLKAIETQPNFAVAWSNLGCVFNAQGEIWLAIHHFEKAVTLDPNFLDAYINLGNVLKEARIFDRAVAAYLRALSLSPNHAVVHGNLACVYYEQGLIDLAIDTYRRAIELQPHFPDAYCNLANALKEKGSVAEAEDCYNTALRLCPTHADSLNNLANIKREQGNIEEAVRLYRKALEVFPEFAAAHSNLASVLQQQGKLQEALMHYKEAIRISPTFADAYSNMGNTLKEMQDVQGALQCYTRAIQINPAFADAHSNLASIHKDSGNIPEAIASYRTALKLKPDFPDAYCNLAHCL

[2] = target: T2, Flag-OGT R348K (expressed in H1299 cells after knockdown of endogenous OGT) (UniProt O15294); assay: co-IP; anti-Flag antibody, H1299 cells transfected with Flag-OGT WT/R348K/R348F after knockdown of endogenous OGT; also with TP064 (CARM1 inhibitor) treatment for 24 h; western blot
T2 sequence: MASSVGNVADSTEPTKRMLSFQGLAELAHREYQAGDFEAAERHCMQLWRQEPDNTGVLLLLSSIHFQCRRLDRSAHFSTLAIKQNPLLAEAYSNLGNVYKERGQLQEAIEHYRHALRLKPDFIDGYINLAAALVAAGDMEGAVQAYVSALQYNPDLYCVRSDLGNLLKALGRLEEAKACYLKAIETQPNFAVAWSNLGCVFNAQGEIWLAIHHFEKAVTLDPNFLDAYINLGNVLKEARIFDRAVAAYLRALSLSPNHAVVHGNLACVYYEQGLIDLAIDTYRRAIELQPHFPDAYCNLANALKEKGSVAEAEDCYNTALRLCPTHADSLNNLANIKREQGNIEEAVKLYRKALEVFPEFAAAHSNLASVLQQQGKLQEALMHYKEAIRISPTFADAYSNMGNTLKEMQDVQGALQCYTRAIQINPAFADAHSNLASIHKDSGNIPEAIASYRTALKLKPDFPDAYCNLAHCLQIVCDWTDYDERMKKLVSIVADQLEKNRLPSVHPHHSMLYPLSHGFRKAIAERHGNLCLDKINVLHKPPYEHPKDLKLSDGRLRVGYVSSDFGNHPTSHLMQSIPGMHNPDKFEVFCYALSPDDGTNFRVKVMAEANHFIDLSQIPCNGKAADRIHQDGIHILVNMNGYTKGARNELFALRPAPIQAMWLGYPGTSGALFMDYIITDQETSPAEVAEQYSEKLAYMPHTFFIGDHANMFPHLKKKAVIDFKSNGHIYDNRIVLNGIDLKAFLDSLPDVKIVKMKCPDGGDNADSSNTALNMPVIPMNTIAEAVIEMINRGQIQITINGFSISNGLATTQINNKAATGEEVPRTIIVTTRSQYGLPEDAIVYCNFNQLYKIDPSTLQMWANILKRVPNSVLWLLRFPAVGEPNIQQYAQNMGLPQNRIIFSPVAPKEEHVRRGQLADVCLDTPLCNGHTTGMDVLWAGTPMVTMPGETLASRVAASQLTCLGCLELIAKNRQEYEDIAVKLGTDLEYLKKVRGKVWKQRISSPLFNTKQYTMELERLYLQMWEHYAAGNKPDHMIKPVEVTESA

[3] = target: T3, Flag-OGT WT (expressed in H1299 cells after knockdown of endogenous OGT) (UniProt O15294); assay: as above
T3 sequence: T2 sequence with K348R

[4] = target: T4, endogenous OGT in H1299 cells (human (endogenous in H1299)) (UniProt O15294); assay: co-IP; endogenous co-IP with anti-OGT antibody in H1299 cells; A/G Magnetic Beads; western blot
T4 sequence: T2 sequence with K348R

binding [1]	binding [2]	binding [3]	binding [4]	Substance
binds				USP9X in HEK-293T cells (from UniProt Q93008 1-2554) (enzyme)
	binds	binds	binds	endogenous USP9X in H1299 cells (from UniProt Q93008 1-2554) (enzyme)
